The text below walks through data of article PMC8531303.

Chains of the proteins cited; added tags and fusions are not shown. Lines headed by an entry give the natural chain unless they say otherwise; changes in a name come on top. Residues count along the entry.
UniProt O00206: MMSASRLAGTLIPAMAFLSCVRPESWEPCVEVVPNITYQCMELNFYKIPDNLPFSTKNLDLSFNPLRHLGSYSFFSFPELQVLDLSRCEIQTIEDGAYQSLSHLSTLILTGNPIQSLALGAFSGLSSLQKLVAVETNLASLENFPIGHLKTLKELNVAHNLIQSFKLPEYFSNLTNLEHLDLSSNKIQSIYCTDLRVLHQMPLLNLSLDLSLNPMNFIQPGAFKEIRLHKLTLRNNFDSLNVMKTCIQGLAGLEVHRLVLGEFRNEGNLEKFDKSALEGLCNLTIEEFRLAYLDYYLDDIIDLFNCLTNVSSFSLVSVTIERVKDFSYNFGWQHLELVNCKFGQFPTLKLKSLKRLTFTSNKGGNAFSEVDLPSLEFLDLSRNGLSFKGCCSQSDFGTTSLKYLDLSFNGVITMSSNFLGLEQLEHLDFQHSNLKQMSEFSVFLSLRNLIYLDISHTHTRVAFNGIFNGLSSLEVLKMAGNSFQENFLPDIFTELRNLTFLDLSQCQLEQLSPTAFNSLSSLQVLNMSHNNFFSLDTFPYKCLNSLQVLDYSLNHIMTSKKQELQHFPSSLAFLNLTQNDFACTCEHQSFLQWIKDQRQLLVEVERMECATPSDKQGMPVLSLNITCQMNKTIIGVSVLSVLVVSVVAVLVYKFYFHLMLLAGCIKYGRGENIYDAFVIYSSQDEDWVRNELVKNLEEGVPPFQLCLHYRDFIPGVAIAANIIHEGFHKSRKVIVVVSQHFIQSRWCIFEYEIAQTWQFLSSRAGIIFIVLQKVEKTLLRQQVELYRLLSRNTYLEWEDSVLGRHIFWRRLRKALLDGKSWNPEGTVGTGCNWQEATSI
GST-TLR4-4 (674-839 aa): residues 674-839 of O00206
UniProt Q9QUK6, residues 26-835: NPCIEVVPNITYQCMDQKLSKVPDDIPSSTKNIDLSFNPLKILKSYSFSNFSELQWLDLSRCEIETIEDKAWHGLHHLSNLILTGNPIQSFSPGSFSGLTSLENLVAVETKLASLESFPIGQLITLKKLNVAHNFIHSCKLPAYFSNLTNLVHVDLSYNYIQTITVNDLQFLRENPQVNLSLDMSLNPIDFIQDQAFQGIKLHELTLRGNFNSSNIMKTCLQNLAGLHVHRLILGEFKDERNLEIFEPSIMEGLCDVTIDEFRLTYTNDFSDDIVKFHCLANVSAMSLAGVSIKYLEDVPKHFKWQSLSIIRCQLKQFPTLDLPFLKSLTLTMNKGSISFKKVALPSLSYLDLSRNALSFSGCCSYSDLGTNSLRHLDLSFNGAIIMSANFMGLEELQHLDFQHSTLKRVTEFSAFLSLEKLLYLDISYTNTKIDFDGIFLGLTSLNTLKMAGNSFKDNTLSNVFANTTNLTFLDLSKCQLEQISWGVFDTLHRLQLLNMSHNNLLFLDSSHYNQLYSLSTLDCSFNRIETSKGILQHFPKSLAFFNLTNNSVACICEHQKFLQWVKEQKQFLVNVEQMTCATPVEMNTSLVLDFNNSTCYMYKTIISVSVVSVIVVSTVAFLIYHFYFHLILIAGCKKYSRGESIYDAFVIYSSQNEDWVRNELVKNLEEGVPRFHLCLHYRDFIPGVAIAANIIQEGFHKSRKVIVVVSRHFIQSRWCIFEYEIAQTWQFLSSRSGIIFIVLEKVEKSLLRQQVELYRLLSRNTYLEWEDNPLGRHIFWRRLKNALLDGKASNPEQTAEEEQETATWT

Results are given in words; binding and its absence hold for the method and conditions named. For some assays here: Binding seen in cells or lysates may run through a third protein. Some results given as binding are weak or reduced against the parent protein; the word gives no strength. For some assays here: Sequences can lack the tags named with a protein.

In test [1] the target is T1, 3×FLAG-NOC4L (human NOC4L in the PC2AOE-3×FLAG vector) (human) (UniProt Q9BVI4).
T1 sequence: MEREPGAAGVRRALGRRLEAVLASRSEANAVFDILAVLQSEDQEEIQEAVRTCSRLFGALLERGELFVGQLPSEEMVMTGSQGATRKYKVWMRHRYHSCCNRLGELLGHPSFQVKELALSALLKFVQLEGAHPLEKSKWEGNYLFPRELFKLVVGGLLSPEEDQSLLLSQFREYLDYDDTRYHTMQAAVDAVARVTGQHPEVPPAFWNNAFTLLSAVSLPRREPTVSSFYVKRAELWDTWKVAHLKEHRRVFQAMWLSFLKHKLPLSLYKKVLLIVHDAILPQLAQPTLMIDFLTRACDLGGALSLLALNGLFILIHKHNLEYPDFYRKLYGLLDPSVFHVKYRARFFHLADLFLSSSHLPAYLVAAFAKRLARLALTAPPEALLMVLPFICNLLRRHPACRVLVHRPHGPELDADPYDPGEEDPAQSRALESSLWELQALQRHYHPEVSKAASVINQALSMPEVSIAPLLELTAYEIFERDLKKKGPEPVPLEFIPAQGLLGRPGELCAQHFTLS
In words: co-IP; HeLa cells co-transfected with PC2AOE-3×FLAG-NOC4L and pEGFP-TLR4, 48 h; lysis in 10 mM Tris-HCl pH 7.8, 0.5% NP-40, 150 mM NaCl, 1 mM EDTA; precipitated with anti-FLAG M2 magnetic beads; blots for FLAG and GFP.

Test [2] concerns the target T2, endogenous NOC4L of HeLa cells (human (endogenous in HeLa)) (UniProt Q9BVI4).
T2 sequence: T1 sequence
Kind of test: co-IP; endogenous proteins in HeLa cells (Supplementary Fig. 5g).

Test [3] concerns the target T3, endogenous mouse Noc4l (mouse (endogenous in RAW264.7, BMDMs and PMs)) (UniProt Q8BHY2).
T3 sequence: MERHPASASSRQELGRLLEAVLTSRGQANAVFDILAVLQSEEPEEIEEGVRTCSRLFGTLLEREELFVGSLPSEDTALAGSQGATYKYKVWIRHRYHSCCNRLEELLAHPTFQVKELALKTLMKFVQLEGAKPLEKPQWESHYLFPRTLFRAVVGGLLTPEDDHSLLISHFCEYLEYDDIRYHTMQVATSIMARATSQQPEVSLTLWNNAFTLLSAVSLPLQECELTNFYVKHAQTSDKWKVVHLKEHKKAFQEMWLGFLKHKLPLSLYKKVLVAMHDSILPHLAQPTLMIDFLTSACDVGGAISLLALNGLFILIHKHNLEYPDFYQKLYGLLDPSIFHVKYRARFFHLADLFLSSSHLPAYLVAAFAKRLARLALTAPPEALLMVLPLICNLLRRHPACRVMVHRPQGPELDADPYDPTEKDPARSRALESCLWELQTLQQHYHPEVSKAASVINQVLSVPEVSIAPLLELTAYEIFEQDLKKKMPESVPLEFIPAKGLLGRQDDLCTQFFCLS
Kind of test: proximity ligation; Duolink PLA on methanol-fixed peritoneal macrophages of Noc4l^fl/fl, Noc4l^LKO, Noc4l^LOE, WT and TLR4 mutant mice; rabbit anti-TLR4 and mouse anti-Noc4l (3L7) antibodies; signal only if closer than 40 nm.

Test [4] has as its target T3, endogenous mouse Noc4l (mouse (endogenous in RAW264.7, BMDMs and PMs)). Kind of test: co-IP; endogenous proteins in lysates of RAW264.7 cells (untreated or stimulated with LPS 200 ng/mL) and of BMDMs from Noc4l^fl/fl mice; precipitated with anti-NOC4L (6 R) or rIgG overnight at 4 °C, protein A/G; blots for TLR4 and Noc4l.
Test [5] deals with GST-TLR4-4 (674-839 aa) (human) (UniProt O00206). Kind of test: pull-down; purified GST-TLR4 truncations and purified Flag-NOC4L-His incubated with Glutathione Sepharose 4B (prepared with 0.2% BSA in PBS) overnight at 4 °C, washed with PBS; NOC4L detected by Western blot with anti-Flag antibody; both purified. (A western blot detects proteins with antibodies after separation by electrophoresis.)

As for “EGFP–TLR4 (human TLR4 in pEGFP-C1) (from UniProt O00206 24-839) (receptor)”, in test [1], the binding result is “binds”. As to “endogenous TLR4 of HeLa cells (from UniProt O00206 24-839) (receptor)”, the binding result in test [2] is on record as “binds”. As to “endogenous mouse TLR4 (from UniProt Q9QUK6 26-835) (receptor)”, the binding result in test [3] and in test [4] was “binds” throughout.

B1: full-length Flag-NOC4L-His (protein, UniProt Q9BVI4 1-516)
chain: T1 sequence
On to B1, for which the binding entry in test [5] is “binds”.
